Experimental data as given in US12497642B2, “Incorporation of unnatural nucleotides and methods of use in vivo thereof” (THE SCRIPPS RESEARCH INSTITUTE, priority 2017, dated 2025).
Certain results were filed several times, with different values. Only these are listed. An entry can have further records. Values given together do not match, cause unknown; some may be repeats, others may stem from another dose, organism or construct than stated.

Chains of the proteins cited; added tags and fusions are not shown. Residues count along the entry.
UniProt P00582, 324-928 limits assumed: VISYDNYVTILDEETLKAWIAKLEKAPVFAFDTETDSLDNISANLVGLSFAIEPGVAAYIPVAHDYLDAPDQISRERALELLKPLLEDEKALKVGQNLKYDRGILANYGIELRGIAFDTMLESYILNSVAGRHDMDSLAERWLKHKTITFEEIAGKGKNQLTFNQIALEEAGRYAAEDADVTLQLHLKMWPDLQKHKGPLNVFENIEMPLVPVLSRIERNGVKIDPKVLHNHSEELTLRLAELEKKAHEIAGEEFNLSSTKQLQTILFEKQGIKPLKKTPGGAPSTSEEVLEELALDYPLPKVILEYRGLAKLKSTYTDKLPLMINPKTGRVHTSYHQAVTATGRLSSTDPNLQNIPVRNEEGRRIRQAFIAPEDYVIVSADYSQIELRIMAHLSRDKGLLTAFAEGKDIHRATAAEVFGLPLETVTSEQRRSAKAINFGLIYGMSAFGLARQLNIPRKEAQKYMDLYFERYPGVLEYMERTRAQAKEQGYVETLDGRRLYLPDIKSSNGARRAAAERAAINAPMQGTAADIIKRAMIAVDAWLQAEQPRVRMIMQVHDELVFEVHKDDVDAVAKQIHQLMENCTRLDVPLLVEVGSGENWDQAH

Target: Klenow fragment of E. coli DNA polymerase I (Escherichia coli, UniProt P00582)
Assay: Steady-state kinetic assay of unnatural triphosphate insertion
Assay type: biochemical
Details: insertion opposite dY = dA in template

SMILES: Cc1cn([C@H]2C[C@H](O)[C@@H](COP(=O)(O)OP(=O)(O)OP(=O)(O)O)O2)c(=O)[nH]c1=O [dTTP]
- Km: 460 nM and 50 nM
